For orientation: IC50 means the concentration that inhibits the measured activity by half. Low values mean greater potency in that assay, high ones weaker potency in that assay.

The subject of assay [1] is DOK. Put plainly: Growth inhibition assay (SRB). The class given is cell-based.
The test system of assay [2] is FaDu. Put plainly: Growth inhibition assay (SRB). It counts as cell-based. Particulars: Homo sapiens.
The subject of assay [3] is Cal27. Put plainly: Growth inhibition assay (SRB). It counts as cell-based. Particulars: Homo sapiens, CAL-27.
Assay [4] has as its system HN1 ACC primary culture. Put plainly: cells. The class given is cell-based. Particulars: Homo sapiens.
Assay [5] concerns HN3 ACC primary culture. Put plainly: cells. It counts as cell-based. Particulars: Homo sapiens.
The subject of assay [6] is HN5 ACC primary culture. Put plainly: Growth inhibition assay (SRB). The class given is cell-based. To be noted: Homo sapiens.
For assay [7], the system named is c-kit over-expressing cell line A549. To be noted: A549 treated in the presence of steel factor (c-kit ligand), compared with 15 μM without.
In assay [8] the test system is cell lines and ACC primary cultures. Put plainly: cells. Particulars: Homo sapiens.
Assay [9] concerns c-kit over-expressing cell line A549. Put plainly: cells. To be noted: Homo sapiens.

As to `Cc1ccc(NC(=O)c2ccc(CN3CCN(C)CC3)cc2)cc1Nc1nccc(-c2cccnc2)n1` [Compound I], the IC50 in assay [1] was 30.1 µM; in [2], 33.7 µM; in assay [3], 18.1 µM; in assay [4], 33.2 µM; in assay [5], 27.1 µM; in assay [6] it was 16.9 µM. Besides, the IC50 in assay [8] is 17 to 33 µM; in [9], 15 µM. Besides, in assay [7], the “IC50 in the presence of steel factor” value is “un-altered”.

(Values after patent publication US20070116784A1, “Imatinib combinations for head and neck cancers” (priority 2003, published 2007).)
